No constants are given. Whether binding was seen depends on the method and setting. In cells and extracts the contact can be indirect. Binding calls can cover weak binding; strength is not graded here. Where a sequence is shown, tags or fusion partners need not be part of it.
What was measured:
[1] = biological target: T1, Flag-SPINK13 (Kazal-type serine protease inhibitor 13, signal peptide removed) (human) (UniProt Q1W4C9); assay: co-IP; MHCC97-H cells cotransfected with pcDNA3.1-Flag-SPINK13 and pcDNA3.1-HA-Furin; lysate (2 mg/ml) incubated with anti-Flag antibody-conjugated magnetic beads 2 h at room temperature; Western blot with Flag and HA antibodies
T1 sequence: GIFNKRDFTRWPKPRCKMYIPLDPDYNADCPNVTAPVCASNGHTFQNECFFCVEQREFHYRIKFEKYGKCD

By UniProt entry, the sequences of proteins in these tests, tags left out. Where a name states a change or a piece, a line headed by the entry shows the natural chain unless it says otherwise.
UniProt P09958: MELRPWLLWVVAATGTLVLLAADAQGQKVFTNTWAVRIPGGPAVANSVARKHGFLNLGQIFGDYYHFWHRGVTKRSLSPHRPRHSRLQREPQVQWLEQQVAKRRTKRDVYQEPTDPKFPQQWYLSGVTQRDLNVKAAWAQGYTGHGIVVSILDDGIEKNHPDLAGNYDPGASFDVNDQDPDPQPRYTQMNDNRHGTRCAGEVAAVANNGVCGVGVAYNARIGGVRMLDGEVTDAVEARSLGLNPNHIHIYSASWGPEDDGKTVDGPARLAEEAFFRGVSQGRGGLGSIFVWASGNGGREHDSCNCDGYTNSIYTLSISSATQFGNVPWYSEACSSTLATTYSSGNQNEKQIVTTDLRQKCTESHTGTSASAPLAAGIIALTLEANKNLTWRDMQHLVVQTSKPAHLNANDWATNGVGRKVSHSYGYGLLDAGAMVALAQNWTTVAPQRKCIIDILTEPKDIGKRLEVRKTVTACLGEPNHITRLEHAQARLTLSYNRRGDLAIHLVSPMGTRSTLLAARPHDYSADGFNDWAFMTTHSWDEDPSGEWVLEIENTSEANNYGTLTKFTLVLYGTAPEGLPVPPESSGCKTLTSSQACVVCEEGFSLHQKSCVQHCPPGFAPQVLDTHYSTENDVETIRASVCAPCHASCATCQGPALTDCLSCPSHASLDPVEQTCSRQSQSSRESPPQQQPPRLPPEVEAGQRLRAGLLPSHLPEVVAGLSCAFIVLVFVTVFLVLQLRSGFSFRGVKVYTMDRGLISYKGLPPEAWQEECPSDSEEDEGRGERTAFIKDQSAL

[2] = biological target: T2, VN173-Flag-SPINK13 fusion protein (BiFC) (human) (UniProt Q1W4C9); assay: split reporter; BiFC: pBiFC-VN173-Flag-SPINK13 and pBiFC-VC155-HA-Furin cotransfected into MHCC97-H cells; laser confocal fluorescence microscopy 48 h after transfection; empty-vector combinations as controls
T2 sequence: T1 sequence

binding [1] | binding [2] | Substance
binds |  | HA-Furin (from UniProt P09958) (enzyme)
 | binds | VC155-HA-Furin fusion protein (BiFC) (from UniProt P09958) (enzyme)

From paper PMC11561306
